## Primary screen of a compound library

The chains behind the UniProt entries cited, without tags or fusion partners. Residues count along the entry.
UniProt P9WPC5, whole entry: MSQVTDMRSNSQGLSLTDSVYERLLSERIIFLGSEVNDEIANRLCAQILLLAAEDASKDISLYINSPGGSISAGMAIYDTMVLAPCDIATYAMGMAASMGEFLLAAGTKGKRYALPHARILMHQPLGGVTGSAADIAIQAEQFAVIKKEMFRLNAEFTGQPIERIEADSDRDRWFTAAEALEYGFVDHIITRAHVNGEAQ
UniProt P9WPC3, whole entry partner: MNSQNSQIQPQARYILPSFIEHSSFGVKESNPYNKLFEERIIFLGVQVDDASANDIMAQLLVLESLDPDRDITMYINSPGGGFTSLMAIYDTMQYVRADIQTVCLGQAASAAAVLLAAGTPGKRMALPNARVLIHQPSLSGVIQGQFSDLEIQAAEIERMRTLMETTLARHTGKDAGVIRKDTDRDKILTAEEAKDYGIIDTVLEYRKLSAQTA
UniProt Q4DA54, 1-478: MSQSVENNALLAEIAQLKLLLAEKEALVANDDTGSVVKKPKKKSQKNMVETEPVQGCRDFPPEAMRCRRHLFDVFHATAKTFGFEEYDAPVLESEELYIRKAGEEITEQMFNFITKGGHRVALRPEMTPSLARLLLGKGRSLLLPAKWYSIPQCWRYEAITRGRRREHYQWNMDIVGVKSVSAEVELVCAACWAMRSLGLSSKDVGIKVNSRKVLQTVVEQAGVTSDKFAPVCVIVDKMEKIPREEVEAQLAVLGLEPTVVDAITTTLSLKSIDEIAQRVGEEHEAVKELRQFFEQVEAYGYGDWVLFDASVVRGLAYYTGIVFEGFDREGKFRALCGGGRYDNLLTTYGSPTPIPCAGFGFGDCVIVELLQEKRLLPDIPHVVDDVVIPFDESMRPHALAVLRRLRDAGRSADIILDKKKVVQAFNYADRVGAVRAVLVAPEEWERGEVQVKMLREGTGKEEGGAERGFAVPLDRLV
UniProt Q8IDJ8, 1-583: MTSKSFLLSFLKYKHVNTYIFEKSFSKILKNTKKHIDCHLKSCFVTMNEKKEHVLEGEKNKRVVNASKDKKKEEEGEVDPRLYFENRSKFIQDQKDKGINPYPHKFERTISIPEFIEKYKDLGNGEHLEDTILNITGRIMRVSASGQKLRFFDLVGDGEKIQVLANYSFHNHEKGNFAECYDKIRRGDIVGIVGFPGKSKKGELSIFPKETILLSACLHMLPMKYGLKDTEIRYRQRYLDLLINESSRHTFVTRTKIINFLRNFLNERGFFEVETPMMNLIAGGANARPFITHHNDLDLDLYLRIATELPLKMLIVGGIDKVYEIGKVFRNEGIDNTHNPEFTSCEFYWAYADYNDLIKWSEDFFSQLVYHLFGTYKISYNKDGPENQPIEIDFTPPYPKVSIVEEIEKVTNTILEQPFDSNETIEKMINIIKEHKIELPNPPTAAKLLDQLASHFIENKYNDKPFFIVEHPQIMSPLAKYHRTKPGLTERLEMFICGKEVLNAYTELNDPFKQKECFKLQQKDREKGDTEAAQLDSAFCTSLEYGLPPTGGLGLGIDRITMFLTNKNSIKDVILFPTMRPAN
UniProt I6X8D2, whole entry: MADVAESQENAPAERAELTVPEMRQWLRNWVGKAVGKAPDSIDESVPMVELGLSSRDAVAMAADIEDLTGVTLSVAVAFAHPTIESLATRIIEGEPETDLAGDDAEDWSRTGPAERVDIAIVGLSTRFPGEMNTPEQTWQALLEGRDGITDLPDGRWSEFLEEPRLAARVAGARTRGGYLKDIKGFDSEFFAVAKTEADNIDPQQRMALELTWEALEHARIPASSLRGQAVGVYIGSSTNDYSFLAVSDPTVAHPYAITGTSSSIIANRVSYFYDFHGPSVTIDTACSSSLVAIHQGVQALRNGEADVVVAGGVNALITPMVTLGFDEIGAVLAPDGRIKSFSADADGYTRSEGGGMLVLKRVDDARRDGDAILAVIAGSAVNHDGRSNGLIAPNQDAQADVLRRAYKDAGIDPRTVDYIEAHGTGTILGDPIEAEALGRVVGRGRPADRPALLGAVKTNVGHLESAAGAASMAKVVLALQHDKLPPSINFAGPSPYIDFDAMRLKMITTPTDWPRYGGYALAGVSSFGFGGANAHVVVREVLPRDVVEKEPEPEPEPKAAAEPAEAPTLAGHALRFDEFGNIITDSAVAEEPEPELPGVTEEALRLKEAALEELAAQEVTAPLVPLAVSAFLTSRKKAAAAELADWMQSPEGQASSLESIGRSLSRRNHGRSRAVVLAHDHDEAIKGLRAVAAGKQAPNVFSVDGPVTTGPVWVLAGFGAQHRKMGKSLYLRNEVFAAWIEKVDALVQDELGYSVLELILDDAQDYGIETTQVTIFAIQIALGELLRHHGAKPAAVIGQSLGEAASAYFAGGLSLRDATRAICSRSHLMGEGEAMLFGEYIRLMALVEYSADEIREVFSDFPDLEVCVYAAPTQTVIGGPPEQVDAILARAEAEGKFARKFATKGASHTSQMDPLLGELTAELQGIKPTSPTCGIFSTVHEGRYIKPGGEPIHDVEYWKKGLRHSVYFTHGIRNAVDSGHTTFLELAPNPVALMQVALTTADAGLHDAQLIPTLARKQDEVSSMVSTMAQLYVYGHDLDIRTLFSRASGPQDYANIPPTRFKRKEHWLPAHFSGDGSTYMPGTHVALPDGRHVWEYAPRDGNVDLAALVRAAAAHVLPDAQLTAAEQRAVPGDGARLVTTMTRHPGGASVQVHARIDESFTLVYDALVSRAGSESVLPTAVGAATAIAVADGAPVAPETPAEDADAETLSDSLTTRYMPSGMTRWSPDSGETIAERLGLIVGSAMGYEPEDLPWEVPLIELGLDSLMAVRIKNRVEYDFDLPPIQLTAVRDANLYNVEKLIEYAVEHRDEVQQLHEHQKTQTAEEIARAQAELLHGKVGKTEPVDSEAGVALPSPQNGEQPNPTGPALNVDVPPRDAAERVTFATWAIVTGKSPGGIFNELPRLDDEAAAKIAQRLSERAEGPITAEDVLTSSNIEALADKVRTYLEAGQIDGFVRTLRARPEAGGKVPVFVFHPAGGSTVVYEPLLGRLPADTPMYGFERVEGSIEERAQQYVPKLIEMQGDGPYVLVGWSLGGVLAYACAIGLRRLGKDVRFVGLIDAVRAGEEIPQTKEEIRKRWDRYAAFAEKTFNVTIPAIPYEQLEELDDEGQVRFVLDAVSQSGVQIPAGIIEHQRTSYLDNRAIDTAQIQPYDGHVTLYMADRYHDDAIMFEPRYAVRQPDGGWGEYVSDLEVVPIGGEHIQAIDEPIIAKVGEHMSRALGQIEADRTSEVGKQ

The values are deposited in ChEMBL (CHEMBL3988442, “University of Dundee, Small-Polar-MMV Screening Library” (2021)).

ClpP1P2: 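ClpP1P2, Mycobacterium tuberculosis (UniProt P9WPC5 and UniProt P9WPC3). Protease assay of ClpP1P2, read by the AMC dye that it sets free. Tested at 50 µM. Direction is inferred from only a few compounds that gave an IC50; most scored high, so higher reads as stronger inhibition. Most other retested compounds had strongly negative values. Size under these conditions: about 69,000 compounds, about 10 of them at 50% or above in at least one test.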
TcHisRS: 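Enzyme assay of histidyl-tRNA synthetase; the read-out is not stated. Target: Histidine-tRNA ligase, Trypanosoma cruzi CL Brener (UniProt Q4DA54). Concentration: 30 µM. The record gives no direction; compounds that gave an IC50 in retests scored well above the rest, so higher reads as stronger inhibition. Of about 69,000 compounds tested this way, about 31 (0.045%) reached 50% or more in at least one test.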
PfKRS1: 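Lysine-tRNA ligase, Plasmodium falciparum 3D7 (UniProt Q8IDJ8). Enzyme assay of the cytosolic lysyl-tRNA synthetase in 384-well plates, read by luminescence. Tested at 30 µM. Higher reads as stronger inhibition, judged from the few compounds that gave an IC50. Size under these conditions: about 69,000 compounds, about 49 of them at 50% or above in at least one test.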
Pks13 thioesterase: 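Enzyme assay of the thioesterase domain of polyketide synthase 13; the read-out is not stated. Target: Polyketide synthase Pks13, Mycobacterium tuberculosis (UniProt I6X8D2). Compounds at 30 µM. Higher reads as stronger inhibition (inferred from which compounds were picked for retests). Of about 67,000 compounds tested this way, about 300 (0.46%) reached 50% or more in at least one test.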

Results are given as percent effect. The record does not define 0% and 100%; most values in the screen are far below 50% and negative numbers occur (in some assays of this library far below -100). This is an unselected part of the compounds tested. A dash means the value is not listed here; it may have been measured.

SMILES | ClpP1P2 | TcHisRS | PfKRS1 | Pks13 thioesterase
Cc1cnn(CC(C)NCc2nc(-c3ccoc3)no2)c1 (stereo unspecified) | -9.037% | 6.696% | -5.566% | -1.688%
Cc1cccc(NC(=O)Cn2nc3ccccn3c2=O)c1C | -24.82% | 4.36% | 2.675% | 3.546%
CN1CCN(c2ncc3c(=O)n(-c4cccc(F)c4)c(=O)[nH]c3n2)CC1 | 2.107% | -1.087% | 9.112% | -22.17%
C=Cn1cc(CN2CCN(CC3(c4ccccc4)CC3)CC2)c(C)n1 | -19.24% | 3.03% | 3.425% | 8.933%
Cc1cccc(-c2noc(CN3CCc4c(ncn4C4CC4)C3)n2)c1 | -4.259% | 7.071% | 0.1494% | -21.77%
CCOC1CCN(C(=O)c2csc(S(N)(=O)=O)c2)CC1 | 4.75% | 4.124% | 0.1307% | -22.29%
COc1cccc(Nc2nc(-c3ccncc3)nc3c2CNCC3)c1 | 14.9% | 1.538% | 2.601% | -2.287%
O=C1CC(c2cccs2)c2cnn(C3CCCC3)c2N1 (stereo unspecified) | -18.2% | 5.394% | -1.357% | -10.95%
CC(C)C(=O)N1CCC([C@@H]2C[C@H](C(F)F)n3ncnc3N2)CC1 | -12.59% | 4.981% | -1.338% | -6.887%
Cc1c(CCC(=O)N2CCCC2c2ccnc(N(C)C)c2)cnn1C (stereo unspecified) | 2.435% | 8.462% | 0.6393% | 5.915%
COc1cccc2c1OCC(NCc1cnn(-c3ccccc3F)c1)C2 (stereo unspecified) | -0.7934% | 0.6369% | 0.1231% | -35.43%
NCC1(c2cccc(C(F)(F)F)c2)CCC1 | 3.078% | 1.087% | 0.7333% | -17.21%
Cc1nc(CN2CCCC(N(C)CCc3cccs3)C2)no1 (stereo unspecified) | 10.57% | 4.065% | -0.05863% | -
Cc1cc(C)n(C2CCCN(C(=O)c3ccn(C)c(=O)c3)C2)n1 (stereo unspecified) | -7.627% | 2.521% | 5.123% | -12.18%
Cc1cnc(CCN(C)C(=O)c2ccc(O)nc2C)s1 | -17.32% | 6.466% | -0.8212% | -21.67%
c1cnc(NCc2nnn3c2CN(Cc2cccs2)CCC3)nc1 | 5.076% | 3.067% | -0.7841% | 16.05%
O=C1C[C@H]2CC[C@@H](CN1)N2C(=O)CCc1ccc2c(c1)OCO2 | -9.949% | 8.458% | 5.658% | -10.35%
Cc1noc([C@@H]2C[C@H]3CN(Cc4cc(C)on4)C[C@H]3O2)n1 | -1.892% | -2.174% | 3.685% | -4.624%
CC1=N[C@@]2(CC[C@@H]3CN(CC4CC4)C[C@@H]32)C(=O)N1CC1CC1 | -5.128% | 1.442% | -2.419% | -24.06%
O=C(NCCC(=O)N1CCCC1)c1cccnc1 | 12.99% | -2.062% | -5.319% | -13.88%
O=C(C1CCC1)N1C(CN2CCOCC2)[C@]2(O)CC[C@H]1CC2 (stereo partly specified) | -6.068% | 1.156% | -0.8979% | -15.53%
CO[C@H]1CCN(C(=O)Cc2ccccn2)[C@H]1Cc1ccncc1 | 11.78% | 8.197% | 2.443% | -22.3%
CC(C)Cc1cc(C(=O)NCc2nnc[nH]2)[nH]n1 | 1.08% | 1.087% | 5.444% | -30.77%
O=C(CN1CCOC(Cn2cccn2)C1)Nc1cccnc1 (stereo unspecified) | -13.94% | 3.125% | -0.5963% | -16.97%
CCCc1cc(NC(=O)c2cc(N3CCNC3=O)c(F)cc2F)n[nH]1 | 24.21% | -4.762% | 1.846% | -36.31%
CCc1ccc(CN2C[C@@H](c3nc(C)no3)C[C@H]3OCC[C@H]32)o1 | 12.47% | 8.867% | 0.5573% | -7.409%
Cc1nc(CN2CCOCC3(CCN(c4ncccn4)CC3)C2)cs1 | -1.834% | 1.84% | 4.443% | 9.321%
Cc1ccc(NCCCNC(=O)NCc2c(C)cc(C)[nH]c2=O)nc1 | -1.73% | 13.86% | 2.091% | -4.744%
Cc1ccc(CN2C[C@@H]3CCCO[C@@H]3[C@H](N(C)Cc3ccco3)C2)s1 | -0.1374% | 9.091% | 6.449% | -1.396%
Cc1ccc(Cc2sc(NC(=O)C(C)S(C)(=O)=O)nc2C)cc1 (stereo unspecified) | -0.4442% | 6.122% | 8.4% | -20.82%
Cc1cnn(C2CN(CC(=O)NCCc3ccccc3)C2)c1 | -5.255% | -1.515% | -0.9096% | -7.727%
CN1CCCC2(CCN(C(=O)CCn3cncn3)C2)C1=O (stereo unspecified) | -6.739% | 1.653% | 0.7316% | -4.863%
Cc1nc(-c2ccnc(N3CCNCC3)n2)no1 | -12.57% | 2.083% | 0.3789% | -3.656%
Cc1n[nH]cc1C(=O)NCc1cccnc1N1CCc2ccccc2C1 | 1.072% | 11.7% | 4.772% | -22.37%
CC(C)NC(=O)C1Cc2nc(-c3ccsc3)sc2N1CC1CC1 (stereo unspecified) | -20.69% | 2.857% | 2.241% | 3.369%
Cc1cccc2[nH]c(C3CCN(C(=O)c4c[nH]c(=O)[nH]c4=O)CC3)nc12 | -5.819% | -2.513% | 6.459% | -6.31%
COc1ccnc(N2CCC(=O)N(CC3CC3)C(C(C)C)C2)n1 (stereo unspecified) | 7.979% | -0.5025% | -1.655% | -16.87%
CCCc1c(C(=O)NC2CCCC2)nnn1-c1ccc(OC)cc1 | 11.47% | 1.075% | -4.023% | -33.94%
NC(=O)NC(CC(=O)N1CCc2sccc2C1)c1ccccc1F (stereo unspecified) | 2.736% | -6.468% | 1.697% | -15.19%
Cc1cc(NCc2cccc(C#N)c2)ccc1C(N)=O | -1.131% | 4.124% | -0.1692% | -10.52%
COc1ccnc(NC(=O)c2cscc2C)c1 | -1.23% | -0.6452% | -2.962% | -29.37%
OCCN1CCN(Cc2cc3c(cc2Br)OCCO3)CC1 | 5.306% | 4.926% | 1.748% | -3.319%
Cc1cc(C)n(C2CCN(c3ncnc4sc5c(c34)CCNC5)C2)n1 (stereo unspecified) | -6.975% | 6.186% | 2.683% | -11.03%
CC1=NOC2(CCN(Cc3c[nH]c4ccccc34)CC2)C1 | 14.28% | 1.775% | 1.237% | -9.755%
Cc1ccc(C(=O)N(C)Cc2ccc3c(c2)OCCO3)c(=O)[nH]1 | -11.78% | 5.325% | -1.408% | -14.48%
CCS(=O)(=O)NC[C@]12COC[C@H]1CN(Cc1ccncc1)C2 | -6.378% | 5.747% | 5.704% | 2.267%
Cc1[nH]ncc1CCCNC(=O)N1CCN2CCCCC2C1 (stereo unspecified) | -2.963% | 4.124% | -4.86% | -9.317%
CSc1nnc(CNC(=O)Nc2ccccc2Br)n1C | -8.583% | 4.215% | -1.495% | 5.03%
O=C(C(NCc1cccc(F)c1F)c1ccccc1)N1CCOCC1 (stereo unspecified) | 4.453% | 5.882% | 8.063% | -20.21%
CC(NCc1cnc(C2CCC2)s1)c1ccccc1-n1cccn1 (stereo unspecified) | -9.176% | 1.587% | 4.333% | -6.173%
Cc1ccc(Br)cc1S(=O)(=O)NCCc1nnc[nH]1 | -1.95% | 10% | 3.545% | 14.3%
O=C(CCn1nnc2ccccc2c1=O)N(CC1CCOC1)C1CC1 (stereo unspecified) | -14% | 5.366% | 1.558% | -10.28%
CCC(CC)n1nc(C)cc1NC(=O)CC1CCOCC1 | -6.097% | 4.865% | 3.22% | -21.17%
Cc1ccc(SCC(=O)NS(=O)(=O)c2ccc3c(c2)OCCO3)cc1 | 3.196% | 2.662% | -4.426% | -2.319%
CC1=N[C@@]2(CC[C@@H]3CN(S(=O)(=O)CC(C)C)C[C@@H]32)C(=O)N1CC1CC1 | -8.152% | -0.9852% | -4.18% | -34.85%
Cn1ncnc1NCc1ccc(F)cc1 | 2.615% | 5.473% | -1.32% | 16%
Cc1ccc(N2CCCC3(CCN(C(=O)C4CC4)C3)C2)nn1 (stereo unspecified) | 2.117% | 4.124% | 0.7411% | 0.8643%